# About 3,700 (1.2%) of roughly 300,000 compounds were called active. This list was built around the results that the source calls inconclusive (neither active nor inactive); the mix of calls is not that of the screen. Calls follow the shape of the full dose curve; tested in HEK293 cells. A potency beside an inconclusive call is a rough fit, not a confirmed value.
# Assay: qHTS for Inhibitors of binding or entry into cells for Lassa Virus; also: nearly all actives have a fitted effect of over 50% in size
# Conditions: Lassa virus pseudotype entry inhibition, cell reporter; activity change, negative = inhibition: at 37.9 µM (top of the series) unless noted
# % is scaled to controls: 0 for no effect and ±100 for the full control effect; potency is read from the fitted curve at half-maximal effect.
SMILES,Potency,"activity change, negative = inhibition"
Cc1ccccc1COc1ccc(/C=C(\C#N)C(N)=O)cc1,"inconclusive: 35.5 µM [activator, partial curve, poor fit]",
CCOc1ccccc1CNCCSc1nnnn1C,"inconclusive: 3.98 µM [activator, full curve, poor fit]",
Cc1ccc(N2C(=O)NC(=O)/C(=C\c3cnc(-c4ccccc4)nc3)C2=O)cc1,inactive,
CCN(CC(=O)NCc1cccs1)C(=O)/C=C/c1ccc(OC)cc1OC,inactive,
O=C(Cc1ccc2ccccc2c1)Nc1ccccc1Br,"inconclusive: 0.562 µM [inhibitor, single point]",
Cc1ccc(S(=O)(=O)N(Cc2ccccc2)c2ccccc2C(=O)NCc2cccnc2)cc1,"inconclusive: 16.4 µM [inhibitor, partial curve, poor fit]",
COc1ccc2c(Cl)c(C(=O)NCCc3ccc(S(N)(=O)=O)cc3)sc2c1,"inconclusive: 20 µM [inhibitor, partial curve, poor fit]",
CC(=O)c1ccc(NC(=O)N2CCN(c3cccc(Cl)c3)CC2)cc1,inactive,
Cc1ccc(NC(=O)CSc2nccn2Cc2ccccc2)cc1C,"inconclusive: 17.8 µM [activator, partial curve, poor fit]",
CN1CCc2c(C#N)c(N3CCCCC3)nc(NCc3ccccc3)c2C1,"inconclusive: 25.9 µM [inhibitor, partial curve, poor fit]",
Fc1cc(F)c2nc(Nc3nc4c(F)cccc4s3)sc2c1,"inconclusive: 23.1 µM [activator, partial curve, poor fit]",
Cc1cc(C)n(-c2nc3cc(Cl)ccc3nc2N2CCN(c3ccccc3F)CC2)n1,inactive,
COc1cnc(-c2ccccn2)nc1Oc1ccc(Cl)c2ccccc12,"inconclusive: 29.1 µM [inhibitor, single point]",
COc1ccc(C(=S)Nc2ccccc2)cc1,"inconclusive: 22.4 µM [activator, single point]",
CS(=O)(=O)N1CCc2cc(C(=O)Nc3ccc(C(F)(F)F)cc3)ccc21,"inconclusive: 3.55 µM [inhibitor, single point]",
Cc1nc2ccccc2nc1OCc1ccc([N+](=O)[O-])cc1,inactive,
CCCCONc1ncnc2nonc12,"inconclusive: 6.51 µM [inhibitor, partial curve, poor fit]",
Cc1nc(SCc2ccc(C(=O)O)cc2)nc2c1CCCC2,inactive,
COc1ccc(-c2ccc(OC)c(OC)c2OC)cc1,"inconclusive: 0.794 µM [inhibitor, full curve]",
CCCOc1ccc(-c2cc(C(F)(F)F)c(C#N)c(SCCC(=O)O)n2)cc1,"inconclusive: 35.5 µM [inhibitor, single point]",
Cc1cc(NC(=O)CSc2nnc(COc3ccccc3)o2)no1,"inconclusive: 1.26 µM [activator, single point]",
CCCNC(=O)N1CCC2(CC1)OCCO2,"inconclusive: 0.316 µM [inhibitor, full curve, poor fit]",
Cn1c(=NCC(O)COc2ccccc2)sc2ccccc21 (stereo unspecified),"inconclusive: 35.5 µM [inhibitor, single point]",

# Copied from the entries so far for reference:
SMILES,Potency,"activity change, negative = inhibition"
CS(=O)(=O)N1CCc2cc(C(=O)Nc3ccc(C(F)(F)F)cc3)ccc21,"inconclusive: 3.55 µM [inhibitor, single point]",
Cc1nc2ccccc2nc1OCc1ccc([N+](=O)[O-])cc1,inactive,
CCCCONc1ncnc2nonc12,"inconclusive: 6.51 µM [inhibitor, partial curve, poor fit]",

# Later entries

SMILES,Potency,"activity change, negative = inhibition"
CC1CC(=O)Nc2ccccc2N1S(=O)(=O)c1ccccc1 (stereo unspecified),inactive,
CCc1ccc(-n2nc3ccc(NC(=O)COc4ccc(OC)cc4)cc3n2)cc1,"inconclusive: 12.6 µM [activator, single point]",
CC(=O)C1=C(c2ccccc2)N(C(C)=O)n2c(C)nnc2S1,"inconclusive: 29.1 µM [inhibitor, single point]",
CC(=O)N1CCCc2cc(S(=O)(=O)N3CCCC(C(=O)NCc4ccc(C)cc4)C3)ccc21 (stereo unspecified),"inconclusive: 10 µM [inhibitor, partial curve, poor fit]",
Cc1sc(NC(=O)CCl)c(C(=O)c2ccccc2)c1C,"inconclusive: 18.3 µM [inhibitor, single point]",
O=C(Nc1cccc(S(=O)(=O)NCc2ccco2)c1)c1ccc(Cl)cc1,inactive,
CC(=O)c1ccc(Nc2ncnc3c2oc2ccccc23)cc1,inactive,
COc1ccc(-c2cn3cc(C)ccc3n2)cc1Br,"inconclusive: 16.4 µM [inhibitor, single point]",
CCOC(=O)/C(=C/C=C1\Sc2cc(C)c(C)cc2N1CC)C(C)=O,"inconclusive: 35.5 µM [inhibitor, single point]",
COCCNC(=O)c1ccc(-c2nc(CS(=O)(=O)c3ccccc3)c(C)o2)cc1,inactive,
Cc1ccccc1OCCCCn1nnc2sc3c(c2c1=O)CCC(C)C3 (stereo unspecified),,inconclusive: 20.2% [activator] [at 46.1 µM]
COC(=O)CSc1nnnn1-c1cccc2ccccc12,"inconclusive: 7.3 µM [inhibitor, single point]",
O=C(C1CCCN(S(=O)(=O)c2ccccc2[N+](=O)[O-])C1)N1CCCC1 (stereo unspecified),inactive,
O=C(Nc1ccc2[nH]ccc2c1)c1ccccc1,active: 2.82 µM,
O=C(Nc1ccc(F)c(Cl)c1)N1CCC(CN2CCOCC2)CC1,,inconclusive: 47% [activator] [at 46.1 µM]
CCCN(CCC)[C@@H]1CCc2cccc(O)c2C1,"inconclusive: 0.0517 µM [activator, full curve, poor fit]",
Nc1ccc(CN2CCCCCC2)cc1,inactive,
Nc1c(N(CCC2=CCCCC2)C(=O)COc2ccc([N+](=O)[O-])cc2)c(=O)[nH]c(=O)n1Cc1ccccc1,"inconclusive: 35.5 µM [inhibitor, single point]",
COc1ccccc1NS(=O)(=O)c1cc(NC(=O)CCNC(C)=O)ccc1N1CCCCC1,"inconclusive: 10 µM [inhibitor, single point]",
COc1cccc(NC(=O)/C=C/c2ccccc2[N+](=O)[O-])c1,"inconclusive: 0.891 µM [activator, partial curve]",
CCOC(=O)c1sc2ncnc(N3CCN(CC)CC3)c2c1C,inactive,
COc1ccccc1CNC(=O)CSc1nnc(C)c2c(C)n(-c3ccccc3)nc12,inactive,
COc1ccc(NC(=O)Cc2ccc(C)c(C)c2)cc1S(=O)(=O)N1CCCCC1,"inconclusive: 15.8 µM [inhibitor, single point]",

# — PubChem BioAssay AID540256 (National Center for Advancing Translational Sciences (NCATS), 2011)
